In publication PMC4978403:
Read-outs that look alike come from different tables or passages of the source. These are yes or no findings as the source states them, for the method shown. Binding seen in cells or lysates may run through a third protein. Some entries that bind do so weakly or less than the wild type. Sequences can lack the tags named with a protein.

Chains of the proteins cited; added tags and fusions are not shown.
UniProt P46936: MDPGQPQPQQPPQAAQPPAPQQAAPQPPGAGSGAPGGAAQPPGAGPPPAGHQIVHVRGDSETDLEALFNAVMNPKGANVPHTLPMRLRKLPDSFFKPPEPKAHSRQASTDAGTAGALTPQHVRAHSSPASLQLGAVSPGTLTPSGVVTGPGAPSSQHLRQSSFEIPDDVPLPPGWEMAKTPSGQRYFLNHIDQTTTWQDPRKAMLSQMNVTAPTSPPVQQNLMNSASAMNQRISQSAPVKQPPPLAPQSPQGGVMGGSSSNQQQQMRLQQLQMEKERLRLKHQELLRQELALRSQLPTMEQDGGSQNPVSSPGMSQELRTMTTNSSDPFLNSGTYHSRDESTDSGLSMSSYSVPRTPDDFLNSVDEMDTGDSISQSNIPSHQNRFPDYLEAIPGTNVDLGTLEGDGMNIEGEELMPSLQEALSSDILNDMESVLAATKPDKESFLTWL

How the values were obtained:
[1] = molecular target: T1, FLAG-SAV1 (chicken Salvador homolog 1, FLAG-tagged) (chicken) (UniProt E1C3T7); assay: co-IP; chicken granulosa cells transfected with pFLAG-SAV1 for 24 h; lysates immunoprecipitated with an antibody to FLAG (control: chicken IgG); 50 mM Tris-HCl pH 7.4, 150 mM NaCl, 0.2 mM PMSF, 1% Triton X-100, 1 mM EDTA; immunoblot for the endogenous partners
T1 sequence: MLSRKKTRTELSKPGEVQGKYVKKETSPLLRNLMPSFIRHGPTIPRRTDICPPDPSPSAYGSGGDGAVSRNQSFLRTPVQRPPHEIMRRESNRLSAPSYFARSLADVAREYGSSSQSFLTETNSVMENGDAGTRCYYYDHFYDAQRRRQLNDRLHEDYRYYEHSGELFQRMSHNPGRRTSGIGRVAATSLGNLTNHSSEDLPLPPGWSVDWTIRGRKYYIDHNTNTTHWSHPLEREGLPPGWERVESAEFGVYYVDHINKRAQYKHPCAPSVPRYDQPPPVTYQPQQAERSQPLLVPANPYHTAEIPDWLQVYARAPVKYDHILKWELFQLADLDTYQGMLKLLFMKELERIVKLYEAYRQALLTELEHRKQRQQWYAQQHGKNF

[2] = molecular target: T1, FLAG-SAV1 (chicken Salvador homolog 1, FLAG-tagged) (chicken); assay: as above; remark: listed apart in the source
[3] = molecular target: T2, GST-SAV1 fusion protein (chicken SAV1) (chicken) (UniProt E1C3T7); assay: pull-down; CHO cells co-transfected with pSF-GST-SAV1 (or empty pSF-GST) and one of pcDNA3.0-STK4, STK3, LATS1, MOB2 for 24 h; lysates incubated with Glutathione Sepharose 4B beads overnight, washed three times with lysis buffer; western blot
T2 sequence: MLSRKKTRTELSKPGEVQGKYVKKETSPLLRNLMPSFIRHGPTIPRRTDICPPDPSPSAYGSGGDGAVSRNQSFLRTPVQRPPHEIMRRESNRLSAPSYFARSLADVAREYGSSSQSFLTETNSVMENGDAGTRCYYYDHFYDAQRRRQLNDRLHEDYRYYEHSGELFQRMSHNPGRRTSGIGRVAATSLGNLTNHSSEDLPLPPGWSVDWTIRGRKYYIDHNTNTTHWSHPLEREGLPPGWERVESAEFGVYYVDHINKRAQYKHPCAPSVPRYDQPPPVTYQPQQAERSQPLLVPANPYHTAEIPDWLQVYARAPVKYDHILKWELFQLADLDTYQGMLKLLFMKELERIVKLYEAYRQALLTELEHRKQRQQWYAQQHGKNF

With “YAP1 (chicken Yes-associated protein), endogenous (from UniProt P46936 1-448)” the binding [1] was “no binding”.

B1: STK4/MST1 (chicken serine/threonine kinase 4), endogenous (protein, UniProt Q5ZJK4 1-486)
chain: METVQLRNPRRQLKKLDEDSLTKQPEEVFDVLEKLGEGSYGSVFKAIHKETGQVVAIKQVPVESDLQEIIKEISIMQQCDSPHVVKYYGSYFKNTDLWIVMEYCGAGSVSDIIRLRNKTLTEEEIATIVQSTLKGLEYLHFMRKIHRDIKAGNILLNTEGHAKLADFGVAGQLTDTMAKRNTVIGTPFWMAPGVIQEIGYNCVADIWSLGITAIEMAEGKPPYADIHPMRAIFMIPTNPPPTFRKPELWSDAFTDFVKQCLVKSPEQRATAIQLLQHPFVKSAKGASILRDLINEAMDIKLKRQEAQQRELDQEDEENSEEDETDSGTMVRASGDETGTIRVVNTMSDGANTMIEHDGTLESQLGTMVINTEDEEEEGTMKRRDETMQPARPSFLEYFEQKAKENQVNSFGKNVSGQTKNSSDWKVPQDGDYEFLKTWSVDELQRRLSALDPMMEQEIEEIRQKYQSKRQPILDAIEAKKRRQQNF
For B1, the binding [2] was “binds”.

B2: STK4 (chicken), expressed from pcDNA3.0-STK4 (protein, UniProt Q5ZJK4 1-486)
chain: METVQLRNPRRQLKKLDEDSLTKQPEEVFDVLEKLGEGSYGSVFKAIHKETGQVVAIKQVPVESDLQEIIKEISIMQQCDSPHVVKYYGSYFKNTDLWIVMEYCGAGSVSDIIRLRNKTLTEEEIATIVQSTLKGLEYLHFMRKIHRDIKAGNILLNTEGHAKLADFGVAGQLTDTMAKRNTVIGTPFWMAPGVIQEIGYNCVADIWSLGITAIEMAEGKPPYADIHPMRAIFMIPTNPPPTFRKPELWSDAFTDFVKQCLVKSPEQRATAIQLLQHPFVKSAKGASILRDLINEAMDIKLKRQEAQQRELDQEDEENSEEDETDSGTMVRASGDETGTIRVVNTMSDGANTMIEHDGTLESQLGTMVINTEDEEEEGTMKRRDETMQPARPSFLEYFEQKAKENQVNSFGKNVSGQTKNSSDWKVPQDGDYEFLKTWSVDELQRRLSALDPMMEQEIEEIRQKYQSKRQPILDAIEAKKRRQQNF
For B2, the binding [3] was “binds”.
